Among the data in PubChem BioAssay AID488840 (Broad Institute, 2010) are activity change, negative = inhibition values, retold here.

By UniProt entry, the sequences of proteins in these tests, tags left out. Where a name states a change or a piece, a line headed by the entry shows the natural chain unless it says otherwise.
UniProt O75164: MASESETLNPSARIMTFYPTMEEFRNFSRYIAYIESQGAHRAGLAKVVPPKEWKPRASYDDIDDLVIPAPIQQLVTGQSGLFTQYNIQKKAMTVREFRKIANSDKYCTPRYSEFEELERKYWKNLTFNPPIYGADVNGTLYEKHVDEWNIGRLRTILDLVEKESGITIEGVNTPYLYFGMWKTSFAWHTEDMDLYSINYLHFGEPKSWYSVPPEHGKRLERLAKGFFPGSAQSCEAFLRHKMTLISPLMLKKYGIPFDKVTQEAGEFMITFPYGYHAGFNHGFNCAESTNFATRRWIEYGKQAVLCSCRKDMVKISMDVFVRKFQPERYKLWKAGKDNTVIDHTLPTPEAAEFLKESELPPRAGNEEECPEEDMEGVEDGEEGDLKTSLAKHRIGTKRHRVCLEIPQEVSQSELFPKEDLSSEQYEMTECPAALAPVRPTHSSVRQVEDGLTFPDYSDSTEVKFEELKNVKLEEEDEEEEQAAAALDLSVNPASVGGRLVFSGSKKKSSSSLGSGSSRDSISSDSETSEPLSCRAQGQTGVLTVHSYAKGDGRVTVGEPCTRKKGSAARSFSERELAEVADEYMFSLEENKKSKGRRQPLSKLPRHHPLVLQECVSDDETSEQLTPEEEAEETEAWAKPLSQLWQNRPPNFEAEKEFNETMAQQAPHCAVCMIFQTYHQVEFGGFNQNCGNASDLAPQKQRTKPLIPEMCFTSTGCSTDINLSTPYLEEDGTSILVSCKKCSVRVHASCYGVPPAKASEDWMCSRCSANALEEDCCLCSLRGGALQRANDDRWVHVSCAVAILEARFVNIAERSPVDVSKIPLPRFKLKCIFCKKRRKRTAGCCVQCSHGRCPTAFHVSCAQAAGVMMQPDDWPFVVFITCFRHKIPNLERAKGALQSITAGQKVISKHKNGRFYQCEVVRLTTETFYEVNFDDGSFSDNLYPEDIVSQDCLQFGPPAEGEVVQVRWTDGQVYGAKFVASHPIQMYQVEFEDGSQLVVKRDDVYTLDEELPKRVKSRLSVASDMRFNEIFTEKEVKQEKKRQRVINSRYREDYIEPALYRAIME

The campaign covered roughly 1,400 compounds. About 45 (3%) were called active.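 How the source made its calls: active means half-maximal dose of signal decrease from fit no higher than ten times the top valid tested dose; inconclusive means fit invalid, or curve flat with 30 to 70% inhibition; inactive means the rest.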 This is one part of the list. Results with a measured potency or affinity are listed apart.

The target in this experiment is Lysine-specific demethylase 4A (Homo sapiens) (UniProt O75164). Briefly: inhibition of JMJD2A H3K9me3 demethylation – biochemical, DELFIA europium, cherry-picked samples, selectivity assay for GASC-1 inhibitor project, dose response (AID 488840).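 Further: europium signal reports the dimethyl H3K9 product detected by antibody so inhibitors lower it; 0% = median of neutral control wells and -100% = median of positive control wells.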 As to conditions: GST-JMJD2A(1-420) H3K9me3 demethylation; at 6 µM (top of the series) unless noted.
For the compound `NC(=S)Nc1ccc(Cl)cc1Cl`, the activity change, negative = inhibition was inactive: 4.69%. Next, `COc1ccc(-c2ccc3oc(-c4ccsc4)cc(=O)c3c2)cn1`: inactive: 4.68%; `CCCc1cc(=O)[nH]c(SCC(=O)Nc2cc(S(=O)(=O)N(CC)c3ccccc3)ccc2Cl)n1`: inactive: -1.23%; `COc1cccc(NC(=O)COC(=O)c2ccc(S(=O)(=O)NCc3ccco3)cc2)c1`: inactive: 1.97%. Next, `COc1ccc(OC)c(Nc2nnc(C)c(=O)[nH]2)c1`: inactive: -3.21%; `CCC(C)NC(=S)N1CCN(C)CC1` (stereo unspecified): inactive: 1.71%.

Regarding `Cc1ccc2c(c1)N(CC(=O)NCC1CCCO1)C(=O)C(C(C)C)O2` (stereo unspecified), the activity change, negative = inhibition is inactive: 5%. For `Cc1cc(N2CCN(c3ccccc3)CC2)nc(-c2ccccc2)n1`, the activity change, negative = inhibition was inactive: -0.55%. On to `CN(C(=O)c1ccc(Cl)c([N+](=O)[O-])c1)C1(C)CCS(=O)(=O)C1` (stereo unspecified), for which the activity change, negative = inhibition was inactive: 1.09%. As to `O=c1c2ccccc2nc2c3ccccc3c(NCc3ccco3)nn12`, the activity change, negative = inhibition is inactive: 3.39%. Turning to `Cc1ccc(NC(=O)COC(=O)CCc2c[nH]c(=O)[nH]2)cc1`, the activity change, negative = inhibition was inactive: 1.03%. Consider `N#Cc1c(N2CCCCC2)nc(N)c2c(N)nc(SCC(=O)O)cc12`, for which the activity change, negative = inhibition was inactive: 0.063%. With `O=C(C/C=N/OCc1ccc(Cl)cc1Cl)c1ccccc1`, the activity change, negative = inhibition was inactive: 6.27%. The value for `C[C@@]12C(=O)Nc3ccc(Cl)cc3C(=O)N1[C@H]1c3cc(Br)ccc3OC[C@@H]1[C@@H]2c1ccccc1` was inactive: 1.94%; that for `CN(c1ccc(OCC(=O)N2CCCCC2)cc1)S(=O)(=O)c1cccs1` was inactive: -7.23%; that for `CCC(NS(=O)(=O)c1cccs1)c1ccc(C)cc1` (stereo unspecified) was inactive: 1.52%. As for `Cc1cccc(C)c1N1C(=O)c2cccc([N+](=O)[O-])c2C1=O`, the activity change, negative = inhibition is inactive: 2.35%. Next, `O=C(Nc1nc2c(s1)C(=O)CCC2)c1ccccc1`: inactive: -2.57%.

Turning to `O=C(COc1ccc(Cl)cc1)NCCCn1ccnc1`, the activity change, negative = inhibition is inactive: 1.24%.

Turning to `CCOC(=O)Cn1nc(C)c2c1CCCC2=O`, the activity change, negative = inhibition is inactive: -1.59%. As for `O=C(CCSCc1ccccc1F)NCCc1ccccc1`, the activity change, negative = inhibition was inactive: 2.55%.

With `Fc1cccc(/C=N/Nc2nc3ccccc3[nH]2)c1`, the activity change, negative = inhibition was inactive: 0.443%. Next, `O=C(COC(=O)c1ccco1)NNC(=O)c1ccc(Cl)cc1`: inactive: -1.66%.

Turning to `COc1c(Cl)cc(Cl)cc1/C=C/C(=O)c1ccc(NC(=O)c2cccs2)cc1`, the activity change, negative = inhibition is inactive: 7.25%.

For the compound `Cc1nc(-c2ccc(C(=O)N3CCCC3)cc2)cs1`, the activity change, negative = inhibition is inactive: 5.39%. The value for `CC(C)(C)OC(=O)C[C@@H]1C/C=C\C[C@H](CC(=O)N[C@H](CO)Cc2ccccc2)C(=O)N[C@@H](Cc2ccccc2)COC1=O` was inactive: 0.0527%; that for `CC(C)(C)c1ccc(-c2csc(NNC3=NCCCCC3)n2)cc1` was inactive: 1.81%; that for `Cc1onc(-c2c(F)cccc2Cl)c1C(=O)N1CCN(S(C)(=O)=O)CC1` was inactive: 5.59%. As for `O=C(/C=C\Nc1ccc(Cl)cn1)c1ccc(Br)cc1`, the activity change, negative = inhibition is inactive: -11.2%. Turning to `COc1cccc(NC(=O)CCN2C(=O)C3CC=CCC3C2=O)c1` (stereo unspecified), the activity change, negative = inhibition was inactive: -1.22%. On to `CC1=NN(C(=O)Cc2ccccc2)C(O)(c2cccnc2)C1` (stereo unspecified), for which the activity change, negative = inhibition is inactive: 2.71%.

Turning to `COC(C(=O)Nc1ccc(NC(=O)C(OC)c2ccccc2)cc1)c1ccccc1` (stereo unspecified), the activity change, negative = inhibition was inactive: 3.15%. As to `CCN(C[C@H]1N[C@@](Cc2ccccc2)(C(=O)OC)[C@H]2C(=O)N(Cc3ccccc3)C(=O)[C@@H]12)S(=O)(=O)c1ccccc1`, the activity change, negative = inhibition was inactive: -6.78%. Consider `COc1ccc(NC(=O)N(C)C[C@H]2Oc3c(NS(=O)(=O)c4cccs4)cccc3C(=O)N([C@@H](C)CO)C[C@@H]2C)cc1`, for which the activity change, negative = inhibition is inactive: -0.422%.

On to `COC(=O)C1CN(S(=O)(=O)c2ccc(C)cc2)CCN1S(=O)(=O)c1ccc(C)cc1` (stereo unspecified), for which the activity change, negative = inhibition is inactive: 12.5%. Regarding `CCCN(CCC)CCNC(=O)CS(=O)Cc1nc(-c2ccc(C)cc2)oc1C` (stereo unspecified), the activity change, negative = inhibition was inactive: -2.48%. On to `Cc1noc(C)c1CCC(=O)N1CCCC(CCC(=O)NCc2ccccc2F)C1` (stereo unspecified), for which the activity change, negative = inhibition is inactive: -5.05%. In the case of `Cc1cc(NC(=O)CCC(=O)N(c2ccccc2)C2(C(=O)NC3CCCCC3)CCCC2)no1`, the activity change, negative = inhibition is inactive: -3.43%. The value for `CC(=O)c1c(C)[nH]c(C(=O)NCCC2=CCCCC2)c1C` was inactive: 2.99%; that for `O=C(NCc1cccs1)c1cccnc1C(=O)O` was inactive: 5.03%.

For `O=c1cc(N2CCc3ccccc32)[nH]c(=O)n1-c1ccccc1`, the activity change, negative = inhibition is inactive: 4.98%. Consider `CCOC(=O)N1CCN(S(=O)(=O)c2ccc3c(c2)CCN3C(=O)C2CC2)CC1`, for which the activity change, negative = inhibition is inactive: -4.45%.

Consider `CN1C(=O)/C(=C2\SC(=S)N(C(CCC(=O)O)C(=O)O)C2=O)c2ccccc21` (stereo unspecified), for which the activity change, negative = inhibition is inactive: 4.78%. In the case of `O=C(O)CC(NC(=O)Cc1ccc(Cl)cc1)c1ccco1` (stereo unspecified), the activity change, negative = inhibition was inactive: -1.11%.

With `CC12CN3CC(C)(CN(C1)C3c1ccc3ccccc3c1O)C2=O` (stereo unspecified), the activity change, negative = inhibition is inactive: 5.64%. Turning to `CN1CCN(C(=O)CN(c2ccccc2)S(=O)(=O)N(C)C)CC1`, the activity change, negative = inhibition is inactive: 1.41%. On to `C/C=C(\C)c1nnc(NC(=O)C(C)C)s1`, for which the activity change, negative = inhibition was inactive: 1.51%. `CN(C)c1ccc(C2Nc3ccccc3C(=O)N2CCN2CCNC2=O)cc1` (stereo unspecified): the activity change, negative = inhibition is inactive: -1.57%. Turning to `CCc1nc(NCc2ccc3c(c2)OCO3)c2oc3ccccc3c2n1`, the activity change, negative = inhibition is inactive: 5.18%. The value for `CCOC(=O)N1CCN(C(=S)NC(C)(C)C)CC1` was inactive: -1.77%. Consider `CN(C)C(=O)c1cccc(-c2csc(N3CCC(C(N)=O)CC3)n2)c1`, for which the activity change, negative = inhibition is inactive: 4.05%.

As for `O=C1CCCc2c1nc(-c1ccccc1)n2O`, the activity change, negative = inhibition was inactive: 0.474%. As to `COC(=O)c1ccc(/C=C/c2c(-c3ccc(OC)cc3)sc3ccccc23)cc1`, the activity change, negative = inhibition was inactive: -2.96%. `COC(=O)c1nn(Cc2ccccc2)c(=O)c2ccccc12`: the activity change, negative = inhibition is inactive: -7.25%. Turning to `O=S(=O)(Nc1ccccc1)c1ccc(NS(=O)(=O)c2c(F)cccc2F)cc1`, the activity change, negative = inhibition was inactive: 8.5%. For the compound `CCOC(=O)C1=C(CSc2nc(-c3ccncc3)ccc2C#N)OC(N)=C(C#N)C1c1cccnc1` (stereo unspecified), the activity change, negative = inhibition is inactive: 5.11%. As to `COc1ccc2c(C)nc(Nc3nc(C)cc(C)n3)nc2c1`, the activity change, negative = inhibition was inactive: -3.52%. Next, `COc1cc2nc(-c3ccccc3C)oc(=O)c2cc1OC`: inactive: 5.38%; `C/C(=N\Nc1nc(C(=O)O)cs1)c1ccccc1`: inactive: 1.97%; `C=CCn1c(-c2cccc3ccccc23)n[nH]c1=S`: inactive: -1.82%.

With `O=C(CNC(=O)c1ccccc1O)N/N=C/c1cc(Br)ccc1OC(=O)/C=C/c1ccco1`, the activity change, negative = inhibition was inactive: -7.8%.

Take `CCCn1nnnc1SCC(=O)NCc1ccc2c(c1)OCO2`: the activity change, negative = inhibition is inactive: 0.509%. Turning to `COC(=O)c1ccc(CSc2nnc(N)s2)o1`, the activity change, negative = inhibition was inactive: 2.55%. For the compound `COc1ccccc1N=Cc1c(C)c(C#N)c2[nH]c3ccccc3n2c1=O`, the activity change, negative = inhibition was inactive: 1.5%. `C[C@H]1CN([C@@H](C)CO)C(=O)c2cc(NC(=O)C3CCCCC3)ccc2O[C@H]1CN(C)S(=O)(=O)c1ccccc1`: the activity change, negative = inhibition was inactive: 1.07%. In the case of `COC(=O)[C@]1(C)N[C@H](CN(C)C(=O)Nc2ccc(F)cc2)[C@@H]2C(=O)N(C)C(=O)[C@@H]21`, the activity change, negative = inhibition is inactive: -4.71%. Next, `COc1ccc(Nc2cccc(Cl)c2)c(C(=O)O)c1`: inactive: 0.373%; `Cc1ccsc1C(=O)OCc1nc2ccccc2c(=O)[nH]1`: inactive: -0.563%; `COc1ccccc1Nc1ncnc2ccccc12`: inactive: 4.58%. Turning to `C=CCOC(=O)C1=C(C)NC(=O)NC1c1ccc(OC(=O)c2ccco2)c(OC)c1` (stereo unspecified), the activity change, negative = inhibition was inactive: -6.19%. Turning to `Cc1cccc(C)c1NC1=NC(=S)N(c2ccc(C(=O)O)cc2)C12CCCCC2`, the activity change, negative = inhibition is inactive: -1.89%.

In the case of `Cc1cccc(C)c1NC(=S)NN(Cc1ccccc1)c1ccccc1`, the activity change, negative = inhibition is inactive: -6.29%. Take `Nc1ccc(S(=O)(=O)NC2(C(F)(F)F)NC(=O)N(c3ccc(F)cc3)C2=O)cc1` (stereo unspecified): the activity change, negative = inhibition is inactive: 0.62%. Next, `CCCc1nnc(SCC(=O)N2CCCC2)n1CC1CCCO1` (stereo unspecified): inactive: 6.01%; `CCOc1ccc(NC(=O)CSc2nnc(-c3ccccc3)n2N)cc1`: inactive: -4.84%; `NNC(=O)c1nn(-c2ccc(Cl)cc2)ccc1=O`: inactive: -3.37%.

For `C=CCn1cnc2scc(-c3ccc(C)cc3)c2c1=O`, the activity change, negative = inhibition was inactive: 1.31%.

With `Cc1ccc(N2CC(C(=O)Nc3ccc(N(C)C)cc3)CC2=O)cc1C` (stereo unspecified), the activity change, negative = inhibition was inactive: -0.0994%.

On to `Cc1cccc(NC(=S)N(CCN2CCOCC2)Cc2cc3cc4c(cc3[nH]c2=O)OCO4)c1`, for which the activity change, negative = inhibition is inactive: 0.379%. With `Cn1c2c(c(=O)n(C)c1=O)CN(CCCN1CCOCC1)CN2`, the activity change, negative = inhibition was inactive: -1.93%. As to `CCOC(=O)c1[nH]c(C)c(/C(O)=C2\C(=O)C(=O)N(CCCN(CC)CC)C2c2cccnc2)c1C` (stereo unspecified), the activity change, negative = inhibition is inactive: -0.856%.

In the case of `COc1ccc(/C=C/C(=O)NC(=S)NNC(=O)Cc2cccs2)cc1OC`, the activity change, negative = inhibition is inactive: -3.45%. On to `Cc1cc(=O)[nH]c(SCC(=O)Nc2ncc(S(=O)(=O)c3ccc([N+](=O)[O-])cc3)s2)n1`, for which the activity change, negative = inhibition was inactive: 0.585%. Take `CC1CCCCC12NC(=O)N(CC(=O)NCCc1ccccn1)C2=O` (stereo unspecified): the activity change, negative = inhibition was inactive: -0.817%. As to `C[C@H]1CN([C@@H](C)CO)C(=O)c2cccc(NC(=O)C3CC3)c2O[C@H]1CN(C)Cc1ccncc1`, the activity change, negative = inhibition is inactive: -4.04%. Next, `CC(C)=CC(=O)O[C@@H]1Cc2c(ccc3ccc(=O)oc23)OC1(C)C`: inactive: -0.336%. Turning to `O=C1CC2C(=O)NCCN2C(=NC(=O)c2ccccc2)N1` (stereo unspecified), the activity change, negative = inhibition was inactive: 7.77%. Consider `CSCCC(NS(=O)(=O)c1ccc(Cl)cc1)C(=O)O` (stereo unspecified), for which the activity change, negative = inhibition was inactive: 3.06%. In the case of `COc1ccc(OC)c(N(CC(=O)NCc2ccncc2)S(C)(=O)=O)c1`, the activity change, negative = inhibition was inactive: -0.807%. In the case of `COc1ccc2sc(-c3ccc(S(C)(=O)=O)cc3)c(C#CCO)c2c1`, the activity change, negative = inhibition was inactive: -2.02%.

For the compound `O=C(Nc1ccccc1C(=O)N1CCOCC1)c1noc2c1CCCC2`, the activity change, negative = inhibition is inactive: 8.98%.
